For at least one entry, the source does not settle the construct or the ends of the probe.
Key:
Test in all cases: ITC
Settings in all cases: oxidized hAIF, no NADH; ITC: 50 mM potassium phosphate, pH 7.4; ~10 uM hAIF titrated with dsDNA; 25 C per Methods and Fig S7, but 15 C for DNA per Fig S8; recombinant protein; residues 102-613
[1] = molecular target: hAIFΔ1-101 W196A (oxidized) (Homo sapiens) (UniProt O95831)
[2] = molecular target: hAIFΔ1-101 W196Y (oxidized) (Homo sapiens) (UniProt O95831)
[3] = molecular target: hAIFΔ1-101 WT (oxidized) (Homo sapiens) (UniProt O95831)

Protein sequences, listed by entry. Tags and fused reporters are not part of them. Residues count along the entry.
UniProt O95831, 102-613 W196A: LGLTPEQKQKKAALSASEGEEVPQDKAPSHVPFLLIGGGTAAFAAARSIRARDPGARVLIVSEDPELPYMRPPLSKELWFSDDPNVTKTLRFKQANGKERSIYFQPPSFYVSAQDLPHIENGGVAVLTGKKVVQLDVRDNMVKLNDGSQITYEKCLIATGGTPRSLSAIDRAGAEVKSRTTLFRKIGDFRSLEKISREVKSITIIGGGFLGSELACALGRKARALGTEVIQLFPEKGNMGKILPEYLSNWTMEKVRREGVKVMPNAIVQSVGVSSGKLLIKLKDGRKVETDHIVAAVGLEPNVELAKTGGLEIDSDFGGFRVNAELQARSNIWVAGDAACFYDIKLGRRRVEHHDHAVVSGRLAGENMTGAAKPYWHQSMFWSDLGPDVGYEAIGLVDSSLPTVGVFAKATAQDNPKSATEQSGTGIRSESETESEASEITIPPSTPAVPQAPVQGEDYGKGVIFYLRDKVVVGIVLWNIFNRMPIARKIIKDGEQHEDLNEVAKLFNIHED
UniProt O95831, 102-613 W196Y: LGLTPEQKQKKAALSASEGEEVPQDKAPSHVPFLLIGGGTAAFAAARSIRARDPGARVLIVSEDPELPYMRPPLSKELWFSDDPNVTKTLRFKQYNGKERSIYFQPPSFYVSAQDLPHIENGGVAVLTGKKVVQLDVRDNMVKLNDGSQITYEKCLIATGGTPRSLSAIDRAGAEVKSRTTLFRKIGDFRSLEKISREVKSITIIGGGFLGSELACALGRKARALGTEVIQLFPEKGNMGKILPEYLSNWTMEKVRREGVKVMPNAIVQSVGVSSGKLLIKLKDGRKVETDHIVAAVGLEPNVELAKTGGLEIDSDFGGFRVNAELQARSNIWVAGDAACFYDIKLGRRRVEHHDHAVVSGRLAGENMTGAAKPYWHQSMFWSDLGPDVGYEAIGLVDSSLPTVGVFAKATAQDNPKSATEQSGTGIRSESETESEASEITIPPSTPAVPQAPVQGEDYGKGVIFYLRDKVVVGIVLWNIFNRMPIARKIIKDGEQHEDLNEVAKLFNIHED
UniProt O95831, 102-613, stated change not applied: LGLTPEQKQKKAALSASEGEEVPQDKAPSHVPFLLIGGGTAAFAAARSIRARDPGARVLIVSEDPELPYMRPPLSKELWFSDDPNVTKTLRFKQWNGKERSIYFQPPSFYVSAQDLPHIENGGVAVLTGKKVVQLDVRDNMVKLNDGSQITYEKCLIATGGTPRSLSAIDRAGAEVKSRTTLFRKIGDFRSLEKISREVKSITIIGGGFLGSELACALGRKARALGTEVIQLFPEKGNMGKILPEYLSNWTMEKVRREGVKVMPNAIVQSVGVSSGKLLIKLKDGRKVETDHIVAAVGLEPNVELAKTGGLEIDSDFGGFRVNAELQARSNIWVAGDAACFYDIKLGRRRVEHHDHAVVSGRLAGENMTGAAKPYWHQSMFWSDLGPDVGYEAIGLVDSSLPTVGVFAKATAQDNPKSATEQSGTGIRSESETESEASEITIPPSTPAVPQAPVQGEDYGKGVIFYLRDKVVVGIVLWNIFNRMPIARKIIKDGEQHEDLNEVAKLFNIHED

GGTTAGTTATGCGCG (double strand) [15-bp dsDNA]
Kd [1]: 5.8 µM
Kd [2]: 6.9 µM
Kd [3]: 1.6 µM
